Experimental data from the supplement of paper PMC10849652.
The other results are listed elsewhere or left out.

Amino acid sequences for entries named in this document (tags omitted). A change or cut given only in a name is not applied to a line headed by its entry.
UniProt Q9BT73: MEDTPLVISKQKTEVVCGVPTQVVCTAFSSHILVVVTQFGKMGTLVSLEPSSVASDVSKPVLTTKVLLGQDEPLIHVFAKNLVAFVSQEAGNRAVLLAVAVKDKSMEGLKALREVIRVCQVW
UniProt Q8TAA3: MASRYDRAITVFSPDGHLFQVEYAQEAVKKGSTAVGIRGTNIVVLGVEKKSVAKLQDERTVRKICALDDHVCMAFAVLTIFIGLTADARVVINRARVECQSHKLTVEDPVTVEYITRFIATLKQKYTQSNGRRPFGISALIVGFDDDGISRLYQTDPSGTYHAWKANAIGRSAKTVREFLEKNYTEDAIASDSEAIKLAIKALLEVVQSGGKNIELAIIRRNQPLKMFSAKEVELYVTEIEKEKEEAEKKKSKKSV
UniProt Q9Y6I8: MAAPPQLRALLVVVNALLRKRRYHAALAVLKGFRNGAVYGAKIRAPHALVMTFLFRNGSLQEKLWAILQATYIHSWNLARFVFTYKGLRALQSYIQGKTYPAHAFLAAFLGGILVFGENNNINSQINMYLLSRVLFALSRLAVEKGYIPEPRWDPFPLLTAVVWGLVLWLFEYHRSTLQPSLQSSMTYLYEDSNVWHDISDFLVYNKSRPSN
UniProt O75475: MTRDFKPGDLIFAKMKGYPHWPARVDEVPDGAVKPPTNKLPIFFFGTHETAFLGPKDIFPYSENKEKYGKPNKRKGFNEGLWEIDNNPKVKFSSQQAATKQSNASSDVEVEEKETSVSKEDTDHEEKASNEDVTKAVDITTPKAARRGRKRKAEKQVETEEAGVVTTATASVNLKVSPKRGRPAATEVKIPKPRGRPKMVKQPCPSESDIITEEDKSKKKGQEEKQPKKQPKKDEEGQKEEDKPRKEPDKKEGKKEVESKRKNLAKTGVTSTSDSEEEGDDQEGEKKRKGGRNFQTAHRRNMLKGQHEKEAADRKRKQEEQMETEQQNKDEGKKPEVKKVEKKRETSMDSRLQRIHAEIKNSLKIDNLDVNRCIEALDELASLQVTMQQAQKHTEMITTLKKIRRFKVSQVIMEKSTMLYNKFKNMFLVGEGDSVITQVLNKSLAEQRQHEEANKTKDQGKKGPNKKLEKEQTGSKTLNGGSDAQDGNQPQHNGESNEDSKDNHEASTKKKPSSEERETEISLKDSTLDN
UniProt Q96C36: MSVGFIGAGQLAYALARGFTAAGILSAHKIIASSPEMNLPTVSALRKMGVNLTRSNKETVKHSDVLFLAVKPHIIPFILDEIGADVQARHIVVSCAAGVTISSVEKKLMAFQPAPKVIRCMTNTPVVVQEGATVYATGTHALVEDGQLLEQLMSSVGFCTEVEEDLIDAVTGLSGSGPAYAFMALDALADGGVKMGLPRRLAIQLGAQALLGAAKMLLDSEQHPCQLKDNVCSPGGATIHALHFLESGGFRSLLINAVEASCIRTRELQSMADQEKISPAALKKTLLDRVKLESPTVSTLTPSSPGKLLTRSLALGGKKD
UniProt Q6PGN9: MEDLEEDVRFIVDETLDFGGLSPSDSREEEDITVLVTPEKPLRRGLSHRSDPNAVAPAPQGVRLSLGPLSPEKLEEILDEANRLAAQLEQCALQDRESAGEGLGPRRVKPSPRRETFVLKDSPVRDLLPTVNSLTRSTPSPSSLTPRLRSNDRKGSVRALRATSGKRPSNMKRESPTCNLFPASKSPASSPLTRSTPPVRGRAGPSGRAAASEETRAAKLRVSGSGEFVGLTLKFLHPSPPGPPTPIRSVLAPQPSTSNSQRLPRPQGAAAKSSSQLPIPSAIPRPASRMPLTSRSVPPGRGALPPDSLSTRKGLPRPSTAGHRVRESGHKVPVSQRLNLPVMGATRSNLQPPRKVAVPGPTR
UniProt Q9NXS2: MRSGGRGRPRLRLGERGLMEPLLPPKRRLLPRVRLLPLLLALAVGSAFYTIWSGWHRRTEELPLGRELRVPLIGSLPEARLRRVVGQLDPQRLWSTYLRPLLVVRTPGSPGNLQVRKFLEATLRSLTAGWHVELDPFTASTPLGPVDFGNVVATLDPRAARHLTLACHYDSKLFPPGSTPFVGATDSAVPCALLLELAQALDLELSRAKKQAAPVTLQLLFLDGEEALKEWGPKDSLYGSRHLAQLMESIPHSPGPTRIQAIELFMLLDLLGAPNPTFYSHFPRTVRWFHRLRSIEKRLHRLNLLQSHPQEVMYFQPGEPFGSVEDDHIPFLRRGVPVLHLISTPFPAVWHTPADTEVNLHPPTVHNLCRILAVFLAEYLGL
UniProt P20618: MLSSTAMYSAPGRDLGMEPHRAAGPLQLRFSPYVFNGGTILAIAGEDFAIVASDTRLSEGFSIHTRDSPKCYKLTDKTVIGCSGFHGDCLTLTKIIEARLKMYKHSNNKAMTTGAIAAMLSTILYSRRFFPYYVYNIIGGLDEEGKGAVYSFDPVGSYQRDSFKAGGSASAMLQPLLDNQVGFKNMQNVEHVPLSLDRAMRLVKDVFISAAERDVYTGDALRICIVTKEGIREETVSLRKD
UniProt Q92530: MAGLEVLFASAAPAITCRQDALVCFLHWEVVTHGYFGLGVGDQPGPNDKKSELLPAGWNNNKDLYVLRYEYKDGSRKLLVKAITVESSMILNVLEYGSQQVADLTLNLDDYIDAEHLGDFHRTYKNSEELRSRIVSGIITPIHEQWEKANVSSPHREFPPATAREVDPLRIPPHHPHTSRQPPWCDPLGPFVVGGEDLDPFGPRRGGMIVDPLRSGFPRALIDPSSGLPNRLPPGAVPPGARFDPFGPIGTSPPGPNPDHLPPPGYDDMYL
UniProt P18433: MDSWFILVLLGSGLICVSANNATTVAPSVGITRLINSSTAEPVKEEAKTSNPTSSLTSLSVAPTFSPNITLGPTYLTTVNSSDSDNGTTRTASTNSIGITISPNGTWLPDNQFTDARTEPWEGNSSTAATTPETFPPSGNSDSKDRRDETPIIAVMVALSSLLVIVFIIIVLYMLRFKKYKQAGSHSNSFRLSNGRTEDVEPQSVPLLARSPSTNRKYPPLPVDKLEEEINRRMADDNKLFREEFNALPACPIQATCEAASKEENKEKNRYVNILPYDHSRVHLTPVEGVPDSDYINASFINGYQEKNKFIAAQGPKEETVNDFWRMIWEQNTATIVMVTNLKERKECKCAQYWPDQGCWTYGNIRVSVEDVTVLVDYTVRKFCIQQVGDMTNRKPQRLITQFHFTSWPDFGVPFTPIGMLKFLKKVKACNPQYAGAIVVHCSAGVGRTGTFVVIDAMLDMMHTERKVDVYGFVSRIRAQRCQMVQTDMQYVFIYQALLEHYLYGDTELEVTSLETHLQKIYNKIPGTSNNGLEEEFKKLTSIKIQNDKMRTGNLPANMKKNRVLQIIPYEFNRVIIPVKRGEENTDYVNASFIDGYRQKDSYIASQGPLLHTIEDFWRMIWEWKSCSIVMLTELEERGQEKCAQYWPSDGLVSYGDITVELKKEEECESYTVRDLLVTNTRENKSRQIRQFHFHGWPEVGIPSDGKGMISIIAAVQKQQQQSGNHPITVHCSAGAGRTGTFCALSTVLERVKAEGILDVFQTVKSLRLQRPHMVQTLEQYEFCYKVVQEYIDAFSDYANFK
UniProt P28066: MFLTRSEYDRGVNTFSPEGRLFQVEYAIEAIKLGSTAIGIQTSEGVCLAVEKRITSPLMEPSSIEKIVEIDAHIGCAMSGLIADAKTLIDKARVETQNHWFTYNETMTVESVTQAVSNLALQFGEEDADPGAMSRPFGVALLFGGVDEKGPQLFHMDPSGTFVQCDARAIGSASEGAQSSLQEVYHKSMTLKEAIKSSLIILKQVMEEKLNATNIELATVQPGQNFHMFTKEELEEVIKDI
UniProt Q3MIT2: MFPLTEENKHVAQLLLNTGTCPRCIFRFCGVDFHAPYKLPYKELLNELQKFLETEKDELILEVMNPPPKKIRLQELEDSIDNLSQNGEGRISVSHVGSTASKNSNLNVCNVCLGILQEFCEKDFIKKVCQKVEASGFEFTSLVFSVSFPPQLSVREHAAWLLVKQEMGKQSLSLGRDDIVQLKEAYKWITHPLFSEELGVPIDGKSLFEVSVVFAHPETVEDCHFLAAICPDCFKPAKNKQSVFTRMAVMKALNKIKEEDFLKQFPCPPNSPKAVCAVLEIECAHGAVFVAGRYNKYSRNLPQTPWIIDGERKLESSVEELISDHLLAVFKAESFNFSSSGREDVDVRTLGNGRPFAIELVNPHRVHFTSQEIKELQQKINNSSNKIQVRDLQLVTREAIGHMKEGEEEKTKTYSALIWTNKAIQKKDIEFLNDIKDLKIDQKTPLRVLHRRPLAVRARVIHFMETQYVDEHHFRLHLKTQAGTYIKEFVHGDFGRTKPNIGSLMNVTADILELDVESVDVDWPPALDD
UniProt Q8TB72: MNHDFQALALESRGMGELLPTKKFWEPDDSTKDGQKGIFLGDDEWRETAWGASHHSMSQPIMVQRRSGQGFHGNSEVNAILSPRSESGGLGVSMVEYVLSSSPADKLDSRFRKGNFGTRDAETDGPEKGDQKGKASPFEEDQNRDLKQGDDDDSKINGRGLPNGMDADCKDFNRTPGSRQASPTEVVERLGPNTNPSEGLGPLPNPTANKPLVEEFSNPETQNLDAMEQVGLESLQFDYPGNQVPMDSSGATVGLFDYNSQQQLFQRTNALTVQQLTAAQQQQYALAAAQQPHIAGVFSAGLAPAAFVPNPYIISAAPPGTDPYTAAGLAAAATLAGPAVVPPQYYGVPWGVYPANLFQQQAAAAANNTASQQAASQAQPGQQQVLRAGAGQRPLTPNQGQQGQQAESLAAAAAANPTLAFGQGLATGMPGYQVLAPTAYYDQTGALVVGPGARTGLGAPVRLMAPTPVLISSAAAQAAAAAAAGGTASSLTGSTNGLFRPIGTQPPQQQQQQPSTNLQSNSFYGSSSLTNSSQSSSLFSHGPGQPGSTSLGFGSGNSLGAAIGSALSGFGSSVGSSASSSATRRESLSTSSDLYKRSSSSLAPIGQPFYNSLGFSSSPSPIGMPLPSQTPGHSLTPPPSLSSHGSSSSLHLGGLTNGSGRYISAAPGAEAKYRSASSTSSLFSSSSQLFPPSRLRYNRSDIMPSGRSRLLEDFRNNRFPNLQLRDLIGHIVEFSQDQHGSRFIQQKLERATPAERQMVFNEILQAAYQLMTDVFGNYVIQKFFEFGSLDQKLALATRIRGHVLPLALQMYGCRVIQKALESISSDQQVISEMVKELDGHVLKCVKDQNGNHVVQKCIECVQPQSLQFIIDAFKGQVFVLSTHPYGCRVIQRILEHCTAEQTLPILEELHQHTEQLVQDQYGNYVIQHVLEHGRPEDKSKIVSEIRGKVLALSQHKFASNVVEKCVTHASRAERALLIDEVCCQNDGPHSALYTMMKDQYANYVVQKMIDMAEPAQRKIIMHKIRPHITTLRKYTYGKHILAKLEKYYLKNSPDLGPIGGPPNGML
UniProt Q08623: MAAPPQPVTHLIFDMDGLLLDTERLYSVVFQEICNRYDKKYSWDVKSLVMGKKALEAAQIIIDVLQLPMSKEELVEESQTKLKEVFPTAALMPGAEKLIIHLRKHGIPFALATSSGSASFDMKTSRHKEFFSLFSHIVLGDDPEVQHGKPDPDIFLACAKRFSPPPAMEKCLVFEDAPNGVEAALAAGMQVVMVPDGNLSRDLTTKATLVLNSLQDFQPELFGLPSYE

Columns and labels:
Test in all cases: log2 fold change, soluble protein after heating vs DMSO (PISA); higher = thermal stabilisation; K562 cells, 10 uM, 30 min; active = over 0.2 and 3.5 SD of the protein, either way, in both replicates (recomputed)
[1] = compound: CC1=C(C=C(C=C1)NC(=O)C2=CC(=CC=C2)C(C)(C)C#N)NC3=CC4=C(C=C3)N=CN(C4=O)C
Outline: (§1)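 K562 cells at 2×10^6 cells/mL were treated with 10 μM compound for 30 min. Aliquots were heated for 3 min across 48°C-58°C, pooled, and extracted in PBS with 0.5% NP-40 at 4°C; soluble protein was the supernatant after 21,000xg for 90 min. Soluble protein was quantified by TMTpro 16plex LC-MS/MS with channel sums equalised, and reported as log2 fold change in thermal stability against DMSO controls, with values from duplicates.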

[2] = compound: CC1=C(C=C(C=C1)NC(=O)C2=CC(=CC=C2)N(C)C)NC(=O)C3=CC=C(C=C3)O
Outline: as §1

[3] = compound: CC1=CC=C(C=C1)SC2=C3C=C(SC3=CN=C2)C(=O)N
Outline: as §1

[4] = compound: CC1=NC(=CC=C1)C2=C(N=C(N2)C(C)(C)C)C3=CC4=NC=CN=C4C=C3
Outline: as §1

Nexturastat A = compound: CCCCN(Cc1ccc(C(=O)NO)cc1)C(=O)Nc1ccccc1 [Nexturastat A]
Outline: as §1

vemurafenib = compound: CCCS(=O)(=O)Nc1ccc(F)c(C(=O)c2c[nH]c3ncc(-c4ccc(Cl)cc4)cc23)c1F [vemurafenib]
Outline: as §1

[5] = compound: CCCS(=O)(=O)Nc1ccc(F)c(C(=O)c2c[nH]c3ncc(Cl)cc23)c1F
Outline: as §1

[6] = compound: CCCc1cc(C)[nH]c(=O)c1CNC(=O)c1cc(-c2ccnc(N3CCN(C)CC3)c2)cc2c1cnn2C(C)C
Outline: as §1

givinostat = compound: CCN(CC)Cc1ccc2cc(COC(=O)Nc3ccc(C(=O)NO)cc3)ccc2c1 [givinostat]
Outline: as §1

barasertib = compound: CCN(CCCOc1ccc2c(Nc3cc(CC(=O)Nc4cccc(F)c4)[nH]n3)ncnc2c1)CCOP(=O)(O)O [barasertib]
Outline: as §1

[7] = compound: CC[C@@H]1C(=O)N(C)c2cnc(Nc3ccc(C(=O)NC4CCN(C)CC4)cc3OC)nc2N1C1CCCC1
Outline: as §1

volasertib = compound: CC[C@@H]1C(=O)N(C)c2cnc(Nc3ccc(C(=O)N[C@H]4CC[C@H](N5CCN(CC6CC6)CC5)CC4)cc3OC)nc2N1C(C)C [volasertib]
Outline: as §1

[8] = compound: CC[C@H](C)N1C=C(C2=C(C=C(C=C21)C3=CN=C(C=C3)N4CCNCC4)C(=O)NCC5=C(C=C(NC5=O)C)C)C
Outline: as §1

epoxomicin = compound: CC[C@H](C)[C@@H](C(=O)N[C@@H]([C@@H](C)O)C(=O)N[C@@H](CC(C)C)C(=O)[C@]1(CO1)C)NC(=O)[C@H]([C@@H](C)CC)N(C)C(=O)C [epoxomicin]
Outline: as §1

[9] = compound: CCn1c(C(=O)N(C2CC2)C2CC2)cc2c3c(ncn3C)c(Nc3cc(C)n(C)n3)nc21
Outline: as §1

[10] = compound: CCn1cc(-c2ccnc3[nH]c(-c4cccc(CN(C)C)c4)cc23)c(-c2ccc(NC(=O)N(C)C)cc2)n1
Outline: as §1

[11] = compound: CN(C)CC(=O)Nc1ccc2[nH]c(=O)c3ccccc3c2c1
Outline: as §1

rosiglitazone = compound: CN(CCOC1=CC=C(C=C1)C[C@H]2C(=O)NC(=O)S2)C3=CC=CC=N3 (racemic) [rosiglitazone]
Outline: as §1

[12] = compound: CN1C2=C(C3=C1C(=O)N(N=C3)CC4=CC(=CC=C4)N)SC(=C2)S(=O)C
Outline: as §1

[13] = compound: CN1CCC(CNc2ccc3ncc(-c4cccc(OC(F)(F)F)c4)n3n2)CC1
Outline: as §1

Measured: log2 fold change

PSMG3 (UniProt Q9BT73)
inactive: [1] -0.074 | [2] -0.016 | [3] 0.033 | [4] 0.006 | Nexturastat A 0.006 | vemurafenib -0.027 | [5] 0.073 | [6] 0.044 | givinostat -0.018 | barasertib -0.019 | [7] 0.011 | volasertib -0.002 | [8] 0.01 | epoxomicin 0.046 | [9] 0.04 | [10] 0.02 | [11] 0.036 | rosiglitazone -0.082 | [12] -0.147 | [13] -0.002

PSMA8 (UniProt Q8TAA3)
inactive: [1] -0.019 | [2] 0.021 | [3] 0.012 | [4] -0.026 | Nexturastat A 0.009 | vemurafenib -0.064 | [5] 0.002 | [6] 0.008 | givinostat -0.02 | barasertib -0.068 | [7] 0.074 | volasertib 0.089 | [8] 0 | epoxomicin -0.187 | [9] 0.034 | [10] 0.038 | [11] 0.022 | rosiglitazone -0.013 | [12] 0.001 | [13] 0.024

PXMP4 (UniProt Q9Y6I8)
inactive: [1] -0.019 | [2] 0.033 | [3] 0.012 | [4] -0.02 | Nexturastat A 0.055 | vemurafenib 0.238 | [5] 0.038 | [6] -0.074 | givinostat -0.026 | barasertib 0.049 | [7] 0.042 | volasertib -0.12 | [8] -0.028 | epoxomicin -0.023 | [9] -0.046 | [10] -0.036 | [11] 0.061 | rosiglitazone 0.016 | [12] -0.057 | [13] 0.07

PSIP1 (UniProt O75475)
inactive: [1] 0.053 | [2] -0.019 | [3] -0.012 | [4] -0.056 | Nexturastat A 0.069 | vemurafenib -0.024 | [5] -0.009 | [6] 0.048 | givinostat -0.03 | barasertib -0.04 | [7] 0.095 | volasertib 0.096 | [8] 0 | epoxomicin -0.054 | [9] 0.029 | [10] 0.014 | [11] -0.041 | rosiglitazone -0.028 | [12] 0.121 | [13] -0.019

PYCR2 (UniProt Q96C36)
inactive: [1] 0.026 | [2] 0.01 | [3] 0.014 | [4] 0.041 | Nexturastat A -0.089 | vemurafenib 0.016 | [5] 0.03 | [6] 0.005 | givinostat -0.022 | barasertib -0.022 | [7] -0.012 | volasertib 0.056 | [8] -0.029 | epoxomicin -0.002 | [9] 0.013 | [10] -0.073 | [11] -0.011 | rosiglitazone -0.02 | [12] -0.04 | [13] 0.062

2 consecutive records out of the list so far, for reference:
PSMA8 (UniProt Q8TAA3)
inactive: [1] -0.019 | [2] 0.021 | [3] 0.012 | [4] -0.026 | Nexturastat A 0.009 | vemurafenib -0.064 | [5] 0.002 | [6] 0.008 | givinostat -0.02 | barasertib -0.068 | [7] 0.074 | volasertib 0.089 | [8] 0 | epoxomicin -0.187 | [9] 0.034 | [10] 0.038 | [11] 0.022 | rosiglitazone -0.013 | [12] 0.001 | [13] 0.024

PXMP4 (UniProt Q9Y6I8)
inactive: [1] -0.019 | [2] 0.033 | [3] 0.012 | [4] -0.02 | Nexturastat A 0.055 | vemurafenib 0.238 | [5] 0.038 | [6] -0.074 | givinostat -0.026 | barasertib 0.049 | [7] 0.042 | volasertib -0.12 | [8] -0.028 | epoxomicin -0.023 | [9] -0.046 | [10] -0.036 | [11] 0.061 | rosiglitazone 0.016 | [12] -0.057 | [13] 0.07

(next part)

PWP1 (UniProt Q13610)
inactive: [1] -0.008 | [2] 0.013 | [3] -0.071 | [4] -0.182 | Nexturastat A 0.28 | vemurafenib -0.09 | [5] -0.027 | [6] 0.114 | givinostat -0.024 | barasertib -0.156 | [7] 0.263 | volasertib 0.586 | [8] -0.037 | epoxomicin -0.36 | [9] 0.092 | [10] 0.311 | [11] -0.138 | rosiglitazone -0.188 | [12] 0.387 | [13] 0.427

PSRC1 (UniProt Q6PGN9)
inactive: [1] 0.016 | [2] 0.002 | [3] -0.032 | [4] -0.12 | Nexturastat A 0.086 | vemurafenib 0.012 | [5] -0.085 | [6] 0.068 | givinostat 0.091 | barasertib -0.065 | [7] 0.139 | volasertib 0.102 | [8] -0.018 | epoxomicin 0.039 | [9] 0.024 | [10] 0.031 | [11] -0.012 | rosiglitazone -0.006 | [12] 0.002 | [13] -0.011

QPCTL (UniProt Q9NXS2)
inactive: [1] -0.04 | [2] 0.06 | [3] -0.098 | [4] -0.059 | Nexturastat A 0.03 | vemurafenib -0.069 | [5] -0.01 | [6] 0.044 | givinostat 0.005 | barasertib -0.006 | [7] 0.009 | volasertib -0.072 | [8] 0.033 | epoxomicin 0.001 | [9] 0.004 | [10] -0.06 | [11] -0.036 | rosiglitazone 0.036 | [12] 0.082 | [13] 0.07

PSMB1 (UniProt P20618)
inactive: [1] -0.04 | [2] 0.005 | [3] -0.007 | [4] -0.014 | Nexturastat A 0.011 | vemurafenib -0.005 | [5] -0.031 | [6] 0.008 | givinostat -0.041 | barasertib -0.046 | [7] 0.037 | volasertib 0.112 | [8] -0.024 | epoxomicin -0.178 | [9] 0.05 | [10] -0.075 | [11] 0.001 | rosiglitazone -0.052 | [12] -0.016 | [13] 0.153

PSMF1 (UniProt Q92530)
inactive: [1] -0.025 | [2] -0.008 | [3] 0.009 | [4] 0.011 | Nexturastat A 0.01 | vemurafenib -0.026 | [5] 0.007 | [6] -0.073 | givinostat 0.012 | barasertib 0.001 | [7] 0.009 | volasertib 0.035 | [8] -0.058 | epoxomicin -0.032 | [9] 0.006 | [10] -0.031 | [11] 0.001 | rosiglitazone 0.026 | [12] -0.057 | [13] -0.08

PTPRA (UniProt P18433)
inactive: [1] -0.087 | [2] 0.024 | [3] -0.002 | [4] 0.021 | Nexturastat A -0.05 | vemurafenib 0.066 | [5] 0.002 | [6] -0.016 | givinostat 0.031 | barasertib 0 | [7] 0.009 | volasertib -0.214 | [8] 0.029 | epoxomicin 0.003 | [9] 0.006 | [10] -0.008 | [11] 0.089 | rosiglitazone 0.006 | [12] -0.031 | [13] 0.036

PSMA5 (UniProt P28066)
inactive: [1] 0.04 | [2] 0.015 | [3] -0.001 | [4] -0.021 | Nexturastat A 0.028 | vemurafenib -0.014 | [5] -0.001 | [6] 0.008 | givinostat -0.044 | barasertib -0.051 | [7] 0.035 | volasertib 0.13 | [8] -0.03 | epoxomicin -0.131 | [9] 0.039 | [10] 0.033 | [11] 0.002 | rosiglitazone -0.034 | [12] -0.009 | [13] 0.038

PUS10 (UniProt Q3MIT2)
inactive: [1] -0.049 | [2] 0.035 | [3] -0.077 | [4] 0 | Nexturastat A -0.08 | vemurafenib 0.017 | [5] 0.08 | [6] 0.044 | givinostat 0.034 | barasertib 0.109 | [7] -0.131 | volasertib -0.271 | [8] -0.036 | epoxomicin 0.001 | [9] 0.109 | [10] -0.011 | [11] -0.004 | rosiglitazone -0.001 | [12] -0.118 | [13] -0.045

PUM2 (UniProt Q8TB72)
inactive: [1] -0.073 | [2] -0.023 | [3] -0.036 | [4] 0.035 | Nexturastat A 0.153 | vemurafenib 0.013 | [5] 0.011 | [6] -0.081 | givinostat -0.095 | barasertib 0 | [7] 0.015 | volasertib -0.032 | [8] 0.01 | epoxomicin 0.098 | [9] 0.029 | [10] 0.075 | [11] -0.159 | rosiglitazone 0.006 | [12] 0.037 | [13] -0.038

PUDP isoform 4 (UniProt Q08623)
inactive: [1] 0.025 | [2] -0.012 | [3] 0.073 | [4] 0.055 | Nexturastat A -0.048 | vemurafenib 0.067 | [5] 0.061 | [6] -0.017 | givinostat -0.049 | barasertib 0.038 | [7] -0.015 | volasertib 0.004 | [8] 0.001 | epoxomicin -0.085 | [9] -0.023 | [10] -0.06 | [11] 0.013 | rosiglitazone 0.016 | [12] -0.031 | [13] -0.008
